From the supplement of paper PMC11732987, “Enantioselective OTUD7B fragment discovery through chemoproteomics screening and high-throughput optimisation” (Communications Chemistry, 2025)
The other results are listed elsewhere or left out. The data scatter; read single values as rough.

Sequences of proteins named here, by UniProt entry; tags and fusion partners are left off. A change or cut given only in a name is not applied to a line headed by its entry. Residues count along the entry.
UniProt Q7Z2Z2, 453-476: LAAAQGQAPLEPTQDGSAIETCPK
UniProt Q14204, whole entry, looked up: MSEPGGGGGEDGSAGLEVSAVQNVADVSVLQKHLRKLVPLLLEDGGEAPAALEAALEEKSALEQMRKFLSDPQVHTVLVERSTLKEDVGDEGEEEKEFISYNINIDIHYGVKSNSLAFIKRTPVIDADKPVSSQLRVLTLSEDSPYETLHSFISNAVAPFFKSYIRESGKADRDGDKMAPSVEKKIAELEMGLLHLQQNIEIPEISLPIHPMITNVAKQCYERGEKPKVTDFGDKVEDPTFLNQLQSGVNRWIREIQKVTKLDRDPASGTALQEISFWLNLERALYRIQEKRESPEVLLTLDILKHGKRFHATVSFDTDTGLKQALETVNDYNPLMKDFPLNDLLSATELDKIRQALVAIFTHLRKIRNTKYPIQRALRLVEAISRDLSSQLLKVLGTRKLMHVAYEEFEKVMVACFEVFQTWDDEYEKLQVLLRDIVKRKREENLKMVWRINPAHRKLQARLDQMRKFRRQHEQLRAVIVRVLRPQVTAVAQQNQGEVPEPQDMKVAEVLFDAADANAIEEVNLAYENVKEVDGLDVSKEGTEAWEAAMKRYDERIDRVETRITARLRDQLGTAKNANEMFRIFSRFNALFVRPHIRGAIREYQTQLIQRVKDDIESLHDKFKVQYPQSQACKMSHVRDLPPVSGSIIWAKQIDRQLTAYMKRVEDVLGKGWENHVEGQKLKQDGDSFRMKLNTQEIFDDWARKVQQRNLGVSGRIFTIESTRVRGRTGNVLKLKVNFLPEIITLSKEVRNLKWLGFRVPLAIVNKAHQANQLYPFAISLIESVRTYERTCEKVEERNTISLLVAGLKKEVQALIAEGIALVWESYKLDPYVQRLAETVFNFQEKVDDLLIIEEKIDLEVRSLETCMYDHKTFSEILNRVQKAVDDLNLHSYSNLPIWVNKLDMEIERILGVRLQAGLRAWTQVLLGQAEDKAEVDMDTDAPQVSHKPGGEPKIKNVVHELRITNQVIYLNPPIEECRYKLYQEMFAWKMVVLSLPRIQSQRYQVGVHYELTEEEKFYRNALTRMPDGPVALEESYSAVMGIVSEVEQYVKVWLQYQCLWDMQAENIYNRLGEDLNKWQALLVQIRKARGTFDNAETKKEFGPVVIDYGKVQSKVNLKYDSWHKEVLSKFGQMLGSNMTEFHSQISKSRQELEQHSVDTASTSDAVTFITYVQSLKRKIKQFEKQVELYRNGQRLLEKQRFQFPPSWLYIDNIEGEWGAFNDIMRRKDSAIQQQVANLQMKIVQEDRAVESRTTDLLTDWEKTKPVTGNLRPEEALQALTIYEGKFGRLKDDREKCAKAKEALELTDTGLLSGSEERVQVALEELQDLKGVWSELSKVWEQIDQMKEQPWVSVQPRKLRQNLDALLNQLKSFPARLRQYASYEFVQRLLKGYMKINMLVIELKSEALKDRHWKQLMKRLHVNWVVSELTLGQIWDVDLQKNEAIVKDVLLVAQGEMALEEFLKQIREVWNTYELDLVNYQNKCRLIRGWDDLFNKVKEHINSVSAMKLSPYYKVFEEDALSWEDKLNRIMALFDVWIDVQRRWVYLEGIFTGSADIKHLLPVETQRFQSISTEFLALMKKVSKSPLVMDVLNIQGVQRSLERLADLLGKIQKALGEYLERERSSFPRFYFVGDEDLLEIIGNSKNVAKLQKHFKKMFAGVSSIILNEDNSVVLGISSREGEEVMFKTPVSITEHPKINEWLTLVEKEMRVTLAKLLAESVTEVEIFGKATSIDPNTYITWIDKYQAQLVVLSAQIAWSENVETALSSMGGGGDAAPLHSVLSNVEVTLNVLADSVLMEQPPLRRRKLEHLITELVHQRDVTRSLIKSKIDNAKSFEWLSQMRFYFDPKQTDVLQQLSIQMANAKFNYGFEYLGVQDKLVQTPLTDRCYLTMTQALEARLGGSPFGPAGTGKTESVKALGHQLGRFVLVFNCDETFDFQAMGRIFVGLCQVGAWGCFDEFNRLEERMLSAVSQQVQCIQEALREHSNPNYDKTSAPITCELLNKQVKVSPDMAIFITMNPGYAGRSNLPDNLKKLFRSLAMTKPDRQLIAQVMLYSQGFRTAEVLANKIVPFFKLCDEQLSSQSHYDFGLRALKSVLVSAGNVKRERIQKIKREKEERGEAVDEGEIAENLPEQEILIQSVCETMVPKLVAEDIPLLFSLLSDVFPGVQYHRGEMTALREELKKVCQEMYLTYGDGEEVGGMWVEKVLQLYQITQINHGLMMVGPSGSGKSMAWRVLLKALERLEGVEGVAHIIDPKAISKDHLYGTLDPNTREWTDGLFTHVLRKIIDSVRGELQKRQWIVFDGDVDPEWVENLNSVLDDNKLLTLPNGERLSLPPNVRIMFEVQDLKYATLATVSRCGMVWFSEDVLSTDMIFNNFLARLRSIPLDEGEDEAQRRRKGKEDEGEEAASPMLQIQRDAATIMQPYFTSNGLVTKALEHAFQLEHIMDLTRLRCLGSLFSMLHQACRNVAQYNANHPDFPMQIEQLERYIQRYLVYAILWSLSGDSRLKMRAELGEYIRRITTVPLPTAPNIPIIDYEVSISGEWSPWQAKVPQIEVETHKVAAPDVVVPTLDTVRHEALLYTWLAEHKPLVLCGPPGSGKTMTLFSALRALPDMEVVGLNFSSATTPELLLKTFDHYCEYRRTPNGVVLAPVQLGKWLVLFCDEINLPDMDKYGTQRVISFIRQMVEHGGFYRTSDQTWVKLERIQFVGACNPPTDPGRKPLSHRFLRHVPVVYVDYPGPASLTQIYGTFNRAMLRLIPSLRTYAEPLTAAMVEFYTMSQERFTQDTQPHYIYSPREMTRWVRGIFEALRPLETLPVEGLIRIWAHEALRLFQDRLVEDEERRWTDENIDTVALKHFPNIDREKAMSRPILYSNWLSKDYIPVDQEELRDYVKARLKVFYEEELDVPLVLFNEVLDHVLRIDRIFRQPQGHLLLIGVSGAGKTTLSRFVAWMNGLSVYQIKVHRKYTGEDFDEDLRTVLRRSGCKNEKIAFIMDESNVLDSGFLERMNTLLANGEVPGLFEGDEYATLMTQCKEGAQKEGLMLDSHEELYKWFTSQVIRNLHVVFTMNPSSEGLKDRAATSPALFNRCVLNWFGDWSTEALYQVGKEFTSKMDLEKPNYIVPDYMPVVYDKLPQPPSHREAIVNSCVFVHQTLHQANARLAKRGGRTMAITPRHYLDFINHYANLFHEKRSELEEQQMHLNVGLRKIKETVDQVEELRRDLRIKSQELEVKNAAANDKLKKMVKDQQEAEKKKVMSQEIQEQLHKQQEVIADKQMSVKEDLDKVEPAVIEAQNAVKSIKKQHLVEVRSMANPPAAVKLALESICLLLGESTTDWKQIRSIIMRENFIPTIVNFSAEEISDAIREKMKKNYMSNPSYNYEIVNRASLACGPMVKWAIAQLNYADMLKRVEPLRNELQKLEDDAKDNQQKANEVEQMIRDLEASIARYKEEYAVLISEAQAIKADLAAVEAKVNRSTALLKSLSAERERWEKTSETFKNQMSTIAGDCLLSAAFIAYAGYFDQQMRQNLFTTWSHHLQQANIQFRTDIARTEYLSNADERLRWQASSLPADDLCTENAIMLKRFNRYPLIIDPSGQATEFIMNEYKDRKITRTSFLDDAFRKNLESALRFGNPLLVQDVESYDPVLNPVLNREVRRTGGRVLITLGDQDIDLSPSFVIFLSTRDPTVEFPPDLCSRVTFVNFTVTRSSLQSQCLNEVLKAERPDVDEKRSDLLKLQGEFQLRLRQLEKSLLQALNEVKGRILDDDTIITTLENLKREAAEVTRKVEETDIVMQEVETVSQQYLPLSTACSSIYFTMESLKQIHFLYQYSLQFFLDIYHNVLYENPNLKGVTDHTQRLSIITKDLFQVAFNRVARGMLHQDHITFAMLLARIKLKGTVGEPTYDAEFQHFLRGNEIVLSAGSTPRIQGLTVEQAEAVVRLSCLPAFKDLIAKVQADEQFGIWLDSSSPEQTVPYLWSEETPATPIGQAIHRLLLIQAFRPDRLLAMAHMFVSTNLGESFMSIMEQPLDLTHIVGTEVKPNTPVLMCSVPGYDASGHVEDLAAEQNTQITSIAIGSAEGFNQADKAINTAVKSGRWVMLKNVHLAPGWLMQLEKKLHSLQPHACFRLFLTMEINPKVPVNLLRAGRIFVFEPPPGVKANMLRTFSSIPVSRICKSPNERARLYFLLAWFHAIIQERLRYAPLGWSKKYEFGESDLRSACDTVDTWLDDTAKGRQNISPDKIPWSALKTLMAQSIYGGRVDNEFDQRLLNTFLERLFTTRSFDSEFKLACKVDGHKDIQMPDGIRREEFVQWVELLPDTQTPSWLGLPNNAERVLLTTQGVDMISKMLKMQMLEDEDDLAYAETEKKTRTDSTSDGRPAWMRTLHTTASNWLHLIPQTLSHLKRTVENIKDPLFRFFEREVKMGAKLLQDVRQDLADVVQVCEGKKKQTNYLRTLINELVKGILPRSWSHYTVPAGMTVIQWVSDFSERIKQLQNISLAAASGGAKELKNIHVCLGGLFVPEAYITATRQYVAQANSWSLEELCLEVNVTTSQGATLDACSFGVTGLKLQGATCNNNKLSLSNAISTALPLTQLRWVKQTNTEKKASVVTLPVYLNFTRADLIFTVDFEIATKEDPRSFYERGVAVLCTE
UniProt Q13541: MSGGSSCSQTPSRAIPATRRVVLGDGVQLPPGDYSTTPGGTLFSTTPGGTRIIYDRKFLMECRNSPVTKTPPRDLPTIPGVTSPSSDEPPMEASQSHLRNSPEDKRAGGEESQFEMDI
UniProt Q5JPH6: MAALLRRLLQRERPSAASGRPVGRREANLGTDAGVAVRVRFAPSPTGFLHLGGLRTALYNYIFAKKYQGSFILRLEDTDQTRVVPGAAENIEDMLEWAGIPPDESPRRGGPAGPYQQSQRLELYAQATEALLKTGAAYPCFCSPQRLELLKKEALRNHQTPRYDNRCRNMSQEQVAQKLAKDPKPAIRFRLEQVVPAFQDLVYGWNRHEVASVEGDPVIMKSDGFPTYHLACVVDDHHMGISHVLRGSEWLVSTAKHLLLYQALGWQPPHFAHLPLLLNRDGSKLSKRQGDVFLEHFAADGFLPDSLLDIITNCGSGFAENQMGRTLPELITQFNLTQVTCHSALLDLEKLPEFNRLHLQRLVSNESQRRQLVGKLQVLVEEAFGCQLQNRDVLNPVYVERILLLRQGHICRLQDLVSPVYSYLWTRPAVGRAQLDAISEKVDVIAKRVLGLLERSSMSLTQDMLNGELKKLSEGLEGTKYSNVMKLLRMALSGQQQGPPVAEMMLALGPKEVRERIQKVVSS
UniProt P55199: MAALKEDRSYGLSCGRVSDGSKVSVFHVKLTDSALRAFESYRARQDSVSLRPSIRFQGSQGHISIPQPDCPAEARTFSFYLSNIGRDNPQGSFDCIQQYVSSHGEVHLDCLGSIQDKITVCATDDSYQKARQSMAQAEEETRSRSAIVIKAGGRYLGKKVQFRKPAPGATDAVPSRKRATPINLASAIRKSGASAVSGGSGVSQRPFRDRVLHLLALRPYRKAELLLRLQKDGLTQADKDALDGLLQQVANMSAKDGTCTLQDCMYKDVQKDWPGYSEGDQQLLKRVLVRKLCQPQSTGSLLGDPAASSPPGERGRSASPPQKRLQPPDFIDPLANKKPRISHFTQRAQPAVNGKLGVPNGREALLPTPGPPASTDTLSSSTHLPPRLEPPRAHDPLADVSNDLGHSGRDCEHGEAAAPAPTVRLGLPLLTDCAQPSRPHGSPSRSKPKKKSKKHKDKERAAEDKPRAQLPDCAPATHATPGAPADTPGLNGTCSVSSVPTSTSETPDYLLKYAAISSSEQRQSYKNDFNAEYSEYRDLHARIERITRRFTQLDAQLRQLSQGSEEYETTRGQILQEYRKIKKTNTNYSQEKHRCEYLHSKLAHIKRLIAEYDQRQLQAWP
UniProt P98172: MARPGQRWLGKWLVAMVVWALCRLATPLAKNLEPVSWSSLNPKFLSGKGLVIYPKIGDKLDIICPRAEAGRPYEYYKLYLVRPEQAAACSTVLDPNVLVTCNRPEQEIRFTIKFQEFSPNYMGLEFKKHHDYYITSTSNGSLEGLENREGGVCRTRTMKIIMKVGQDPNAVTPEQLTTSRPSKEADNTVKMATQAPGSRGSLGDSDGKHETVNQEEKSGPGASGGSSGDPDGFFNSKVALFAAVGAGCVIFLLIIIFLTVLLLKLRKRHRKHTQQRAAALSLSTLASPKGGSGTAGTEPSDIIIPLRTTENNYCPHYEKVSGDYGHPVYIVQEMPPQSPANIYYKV
UniProt Q8N5X7: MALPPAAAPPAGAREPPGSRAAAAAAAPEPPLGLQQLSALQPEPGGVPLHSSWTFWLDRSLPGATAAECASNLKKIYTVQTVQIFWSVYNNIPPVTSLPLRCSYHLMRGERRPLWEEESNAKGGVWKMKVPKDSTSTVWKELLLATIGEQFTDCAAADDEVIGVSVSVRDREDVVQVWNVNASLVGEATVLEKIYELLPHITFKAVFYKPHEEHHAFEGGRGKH

compound: ClCC(=O)N[C@@H]1CCCc2ccccc12; experiment: log2 mean competition ratio of IA-DTB cysteine labelling (DMSO/compound) (log2 ratio); higher = stronger cysteine engagement by compound; details: 200 µM; treatment time: 4 h; cell line lysate: HEK293T
Experimental: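 IA-DTB competitive cysteine chemoproteomics in HEK293T RIPA lysate. Lysates were treated with compound 29 or 30 at 50 or 200 µM for 4 h, then IA-DTB (500 µM, 1 h), trypsin-digested, NeutrAvidin-enriched and analysed by diaPASEF. Competition ratio = intensity DMSO / intensity compound (n=4 treated, n=64 DMSO); binding: mean log2 CR ≥ 1 and p ≤ 0.05 plus QC filters. Target is the cysteine site.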

**Q.** For DSC2 C898 (UniProt Q02487), which “log2 mean competition ratio” value is on record?
**A.** The value was -0.0282.

**Q.** EFEMP1 C190 (UniProt Q12805) was tested. Which “log2 mean competition ratio” value did it give?
**A.** The value was 0.254.

**Q.** With EFL1 C474 (UniProt Q7Z2Z2) as the target, how does the “log2 mean competition ratio” value read?
**A.** The value was 0.0175.

**Q.** With DYNC1H1 C4216 (UniProt Q14204) as the target, how does the “log2 mean competition ratio” value read?
**A.** The value was 0.246.

**Q.** Which “log2 mean competition ratio” value does the source give for DYNC2H1 C3277 (UniProt Q8NCM8) here?
**A.** Its value is 0.152.

**Q.** Which “log2 mean competition ratio” value does the source give for DYNC2I1 C57 here?
**A.** The value was 0.178.

**Q.** EDC4 C4 (UniProt Q6P2E9) was tested. Which “log2 mean competition ratio” value did it give?
**A.** The value was 0.154.

**Q.** Which “log2 mean competition ratio” value does the source give for EIF4G3 C1411 here?
**A.** Its value is -0.354.

**Q.** How did the “log2 mean competition ratio” value turn out when EIF4EBP1 C62 (UniProt Q13541) was run?
**A.** Its value is 0.275.

**Q.** Which “log2 mean competition ratio” value does the source give for EARS2 C386 (UniProt Q5JPH6) here?
**A.** Its value is -0.517.

**Q.** With DRG2 C270 (UniProt P55039) as the target, how does the “log2 mean competition ratio” value read?
**A.** The value was 0.0127.

**Q.** With DYNC2H1 C3657 (UniProt Q8NCM8) as the target, how does the “log2 mean competition ratio” value read?
**A.** The value was 0.324.

**Q.** For DYNC1H1 C3712 (UniProt Q14204), which “log2 mean competition ratio” value is on record?
**A.** The value was 0.115.

**Q.** With DSTN C23 (UniProt P60981) as the target, how does the “log2 mean competition ratio” value read?
**A.** Its value is -0.309.

**Q.** With DSP C1855 (UniProt P15924) as the target, how does the “log2 mean competition ratio” value read?
**A.** The value was 0.38.

**Q.** With ECI2 C368 (UniProt O75521) as the target, how does the “log2 mean competition ratio” value read?
**A.** Its value is 0.339.

**Q.** With DSP C1052 (UniProt P15924) as the target, how does the “log2 mean competition ratio” value read?
**A.** Its value is 0.642.

**Q.** EDRF1 C1007 (UniProt Q3B7T1) was tested. Which “log2 mean competition ratio” value did it give?
**A.** Its value is 0.304.

**Q.** Which “log2 mean competition ratio” value does the source give for ELL C14 (UniProt P55199) here?
**A.** Its value is 0.00767.

**Q.** For DYNC1H1 C633 (UniProt Q14204), which “log2 mean competition ratio” value is on record?
**A.** Its value is 0.291.

**Q.** Which “log2 mean competition ratio” value does the source give for EIF3A C198 (UniProt Q14152) here?
**A.** Its value is -0.0771.

**Q.** How did the “log2 mean competition ratio” value turn out when EFNB1 C314 (UniProt P98172) was run?
**A.** The value was -0.103.

**Q.** EIF4E3 C69 (UniProt Q8N5X7) was tested. Which “log2 mean competition ratio” value did it give?
**A.** The value was -0.148.

**Q.** EEF2 C567 (UniProt P13639) was tested. Which “log2 mean competition ratio” value did it give?
**A.** Its value is -0.372.

**Q.** For DTX3L C309 (UniProt Q8TDB6), which “log2 mean competition ratio” value is on record?
**A.** Its value is 0.18.

**Q.** For EEF2 C41 (UniProt P13639), which “log2 mean competition ratio” value is on record?
**A.** Its value is -0.251.

**Q.** How did the “log2 mean competition ratio” value turn out when EDC4 C838 (UniProt Q6P2E9) was run?
**A.** Its value is 0.0204.
